Where two headings read alike, the source gives them in different places. No constants are given. Whether binding was seen depends on the method and setting. Binding seen in cells or lysates may run through a third protein. Some results given as binding are weak or reduced against the parent protein; the word gives no strength. One block for each molecule: values may come before it.
How the values were obtained:
[1] = target: B lymphocyte-induced maturation protein 1 (Blimp-1), endogenous in T cells (human (endogenous in primary CD8+ T cells)) (UniProt O75626); test: co-IP; endogenous proteins in lysates of ex vivo induced human CD8+CD103+ T cells, with or without CSC pretreatment; lysis in 150 mM NaCl, 50 mM Tris-HCl, 10% glycerol, 0.5-1% Triton X-100; antibody and protein A/G beads overnight at 4 °C; immunoblot
[2] = substrate: B lymphocyte-induced maturation protein 1 (Blimp-1), endogenous in T cells (human (endogenous in primary CD8+ T cells)) (UniProt O75626); test: as above; remark: listed apart in the source
[3] = target: Flag-Blimp-1 (WT) (UniProt O75626); test: co-IP; HEK293T cells transfected with Blimp-1 (WT or K128R), with or without acetate (15 mM) or shGCN5; lysis in 150 mM NaCl, 50 mM Tris-HCl, 10% glycerol, 0.5-1% Triton X-100; immunoblot
[4] = target: Flag-Blimp-1 K128R (UniProt O75626); test: as above

Sequences of proteins named here, by UniProt entry; tags and fusion partners are left off.
UniProt Q92830: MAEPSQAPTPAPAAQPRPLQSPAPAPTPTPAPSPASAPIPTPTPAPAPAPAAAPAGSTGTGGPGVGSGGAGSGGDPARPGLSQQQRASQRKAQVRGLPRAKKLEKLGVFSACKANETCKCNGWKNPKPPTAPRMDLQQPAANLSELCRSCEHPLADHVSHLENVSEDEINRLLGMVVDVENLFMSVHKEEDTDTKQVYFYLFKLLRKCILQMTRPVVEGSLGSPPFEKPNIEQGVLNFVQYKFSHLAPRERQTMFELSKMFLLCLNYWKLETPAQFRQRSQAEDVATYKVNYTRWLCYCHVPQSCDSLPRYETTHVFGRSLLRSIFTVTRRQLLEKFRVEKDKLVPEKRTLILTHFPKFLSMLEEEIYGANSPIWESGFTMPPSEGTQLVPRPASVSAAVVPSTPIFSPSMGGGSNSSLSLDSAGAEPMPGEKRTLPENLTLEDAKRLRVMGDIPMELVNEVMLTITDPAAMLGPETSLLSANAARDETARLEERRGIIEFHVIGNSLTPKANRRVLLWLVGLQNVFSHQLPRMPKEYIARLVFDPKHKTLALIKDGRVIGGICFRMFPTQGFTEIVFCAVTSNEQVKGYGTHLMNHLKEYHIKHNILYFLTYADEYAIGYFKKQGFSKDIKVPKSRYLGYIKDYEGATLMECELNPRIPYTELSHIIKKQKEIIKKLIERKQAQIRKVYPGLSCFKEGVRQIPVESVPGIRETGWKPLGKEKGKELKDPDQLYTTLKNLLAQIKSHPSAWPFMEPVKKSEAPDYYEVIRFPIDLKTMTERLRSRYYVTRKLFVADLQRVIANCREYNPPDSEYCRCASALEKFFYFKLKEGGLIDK

- binding [1]: binds
Molecule: GCN5, endogenous in T cells (from UniProt Q92830 1-837) (enzyme)

- binding [1]: binds
Molecule: HDAC5, endogenous in T cells (from UniProt Q9UQL6 1-1122) (enzyme)

- binding [2]: binds
B1: LIS1, endogenous in T cells (protein, UniProt P43034 1-410)
chain: MVLSQRQRDELNRAIADYLRSNGYEEAYSVFKKEAELDVNEELDKKYAGLLEKKWTSVIRLQKKVMELESKLNEAKEEFTSGGPLGQKRDPKEWIPRPPEKYALSGHRSPVTRVIFHPVFSVMVSASEDATIKVWDYETGDFERTLKGHTDSVQDISFDHSGKLLASCSADMTIKLWDFQGFECIRTMHGHDHNVSSVAIMPNGDHIVSASRDKTIKMWEVQTGYCVKTFTGHREWVRMVRPNQDGTLIASCSNDQTVRVWVVATKECKAELREHEHVVECISWAPESSYSSISEATGSETKKSGKPGPFLLSGSRDKTIKMWDVSTGMCLMTLVGHDNWVRGVLFHSGGKFILSCADDKTLRVWDYKNKRCMKTLNAHEHFVTSLDFHKTAPYVVTGSVDQTVKVWECR

- binding [3]: binds
- binding [4]: binds
B2: LIS1 in HEK293T cells (protein, UniProt P43034 1-410)
chain: MVLSQRQRDELNRAIADYLRSNGYEEAYSVFKKEAELDVNEELDKKYAGLLEKKWTSVIRLQKKVMELESKLNEAKEEFTSGGPLGQKRDPKEWIPRPPEKYALSGHRSPVTRVIFHPVFSVMVSASEDATIKVWDYETGDFERTLKGHTDSVQDISFDHSGKLLASCSADMTIKLWDFQGFECIRTMHGHDHNVSSVAIMPNGDHIVSASRDKTIKMWEVQTGYCVKTFTGHREWVRMVRPNQDGTLIASCSNDQTVRVWVVATKECKAELREHEHVVECISWAPESSYSSISEATGSETKKSGKPGPFLLSGSRDKTIKMWDVSTGMCLMTLVGHDNWVRGVLFHSGGKFILSCADDKTLRVWDYKNKRCMKTLNAHEHFVTSLDFHKTAPYVVTGSVDQTVKVWECR

From PMC12884792
